Laboratory results as given in patent US12122815B2, “GIP receptor agonist peptide compounds and uses thereof” (TAKEDA PHARMACEUTICAL COMPANY LIMITED, priority 2018, dated 2024).
Like-named read-outs stand apart in the source and are kept apart here. At least one peptide structure holds a part that was inferred or is arguable (an end, a ring closure or a residue).

By UniProt entry, the sequences of proteins in these tests, tags left out. Residues count along the entry.
UniProt P43220, 24-463: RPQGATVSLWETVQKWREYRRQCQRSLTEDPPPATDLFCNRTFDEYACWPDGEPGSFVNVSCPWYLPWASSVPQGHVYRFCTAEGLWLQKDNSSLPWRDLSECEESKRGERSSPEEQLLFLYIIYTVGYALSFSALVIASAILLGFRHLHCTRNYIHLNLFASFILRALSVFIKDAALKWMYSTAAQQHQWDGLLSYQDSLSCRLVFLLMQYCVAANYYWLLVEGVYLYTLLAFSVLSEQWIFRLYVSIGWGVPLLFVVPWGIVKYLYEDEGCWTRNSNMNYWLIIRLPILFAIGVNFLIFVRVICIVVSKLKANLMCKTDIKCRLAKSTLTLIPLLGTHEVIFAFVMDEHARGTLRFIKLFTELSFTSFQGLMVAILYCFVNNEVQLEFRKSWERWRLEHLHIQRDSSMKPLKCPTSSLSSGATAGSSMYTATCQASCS

Legend:
human GIPR = biological target: T1, human GIPR (Homo sapiens, UniProt P48546); test: Agonist activity on human GIPR, CRE-luciferase reporter assay with increase in intracellular cAMP as indicator (hGIPR/CRE-LUC/CHO-K1 cell); assay type: cell-based; conditions: 4 hours incubation, 100% = 10 nM GIP, read-out: hGIPR (polyclonal) Reporter (EC50)
T1 construct: FLAG (N)
T1 sequence (P48546 22-466): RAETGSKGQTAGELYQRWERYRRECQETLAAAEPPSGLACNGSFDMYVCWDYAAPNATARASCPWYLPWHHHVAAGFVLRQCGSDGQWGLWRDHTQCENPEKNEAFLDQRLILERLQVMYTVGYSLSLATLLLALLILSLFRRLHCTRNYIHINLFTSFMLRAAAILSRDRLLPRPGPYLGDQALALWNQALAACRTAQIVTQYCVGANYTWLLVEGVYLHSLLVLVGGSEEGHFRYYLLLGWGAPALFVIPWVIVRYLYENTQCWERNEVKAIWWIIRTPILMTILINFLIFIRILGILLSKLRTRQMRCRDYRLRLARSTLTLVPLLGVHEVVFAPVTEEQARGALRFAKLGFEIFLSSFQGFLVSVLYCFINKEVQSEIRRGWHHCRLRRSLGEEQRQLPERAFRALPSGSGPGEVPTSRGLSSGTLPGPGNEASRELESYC
From the text: (§1) Evaluation of Agonist Activity on Human GIPR and Human GLP-1R with Increase in Intracellular cAMP Concentration as Indicator
(§2) A) Evaluation of Agonist Activity on Human GIPR and Human GLP-IR with Increase in Intracellular cAMP Concentration as Indicator
(1) Construction of Expression Plasmid of Human GIPR Gene. The Human GIPR Gene Having an Identical Sequence to Genebank Accession No. U39231 was Cloned into a pMSRα-Neo Vector to Prepare hGIPR/pMSRα-Neo.
(2) Construction of Reporter Plasmid Expressing Cell Luciferase Reporter Gene with a cAMP-Responsive Sequence Located Upstream was Transferred to a CHO-K1 Cell to Construct a CRE-LUC/CHO-K1 Cell.
(§3) (3) Construction of Reporter Plasmid
(§4) Four Copies of a cAMP responsive sequence and a Zeocin resistance gene were transferred to pGL3(R2.2)-Basic Vector (Promega) to construct a Cre-luc(Zeo) reporter plasmid.
(4) Transfer of Human GIPR Gene to CRE-LUC/CHO-K1 Cell and Obtaining of Expressing Cell the Plasmid hGIPR/pMSRα-Neo Obtained in (1) was Transferred to the CRELUC.
CHO-K1 cell obtained in (2) to obtain a transformant. Subsequently, the cell line inducing the luciferase expression, hGIPR/CRE-LUC/CHO-K1 cell, was selected from the obtained transformant by adding GIP.
25 μL each of the hGIPR/CRE-LUC/CHO-K1 cell was inoculated in a 384-well white plate (Corning) in such a way as to provide 5×10^3 cells/well and cultured in a HamF12 medium containing 10% fetal bovine serum, 100 U/mL penicillin, and 100 μg/mL streptomycin in a CO2 incubator at 37° C. overnight. 5 μL of a medium containing a test compound was added to the cells and incubated for 4 hours at the indicated concentration in a CO2 incubator at 37° C. […] 20 Minutes later, luciferase activity was measured using a plate reader Envision (PerkinElmer). The GIPR agonist activity was calculated with increase in intracellular cAMP concentration as the indicator when the luciferase activity in the presence of 10 nM of GIP was 100% and the luciferase activity in the case of adding DMSO instead of the test compound was 0%.

human GLP-1R = biological target: T2, human GLP-1R (Homo sapiens, UniProt P43220); test: Agonist activity on human GLP-1R, CRE-luciferase reporter assay with increase in intracellular cAMP as indicator (hGLP-1R/CRE-luc/CHO-K1 cell); assay type: cell-based
T2 construct: FLAG (N)
From the text: as §1, §2, §3, §4
(5) Construction of Expression Plasmid of Human GLP-1R Gene
The human GLP-IR gene having an identical sequence to Genebank Accession No. NM_002062 was cloned into a pIRESneo3 vector to prepare hGLP-1/pIRESneo3.
(6) Transfer of Human GLP-1R Gene and Reporter Plasmid to CHO-K1 Cell and Obtaining of Expressing Cell
The Cre-luc (Zeo) obtained in (3) and the plasmid hGLP-1/pIRESneo3 obtained in (5) were transferred to the CHO-K1 cell to obtain a transformant. Subsequently, the cell line inducing the luciferase expression, hGLP-1R/CRE-luc/CHO-K1 cell, was selected from the obtained transformant by adding GLP-1.
25 μL each of the hGIPR/CRE-LUC/CHO-K1 cell was inoculated in a 384-well white plate (Corning) in such a way as to provide 5×10^3 cells/well and cultured in a HamF12 medium containing 10% fetal bovine serum, 100 U/mL penicillin, and 100 μg/mL streptomycin in a CO2 incubator at 37° C. overnight. 5 μL of a medium containing a test compound was added to the cells and incubated for 4 hours at the indicated concentration in a CO2 incubator at 37° C. Steady-Glo (Promega) was added in amounts of 30 μL and shaken under light shielding. 20 Minutes later, luciferase activity was measured using a plate reader Envision (PerkinElmer). The GIPR agonist activity was calculated with increase in intracellular cAMP concentration as the indicator when the luciferase activity in the presence of 10 nM of GIP was 100% and the luciferase activity in the case of adding DMSO instead of the test compound was 0%.
The GLP-IR agonist activity was assayed in the same manner as above using the hGLP-1R/CRE-luc/CHO-K1 cell.

[1] = 100% = 10 nM GLP-1, read-out: hGLP-1R (Reporter gene assay) (EC50)

CC[C@H](C)[C@H](NC(=O)[C@H](CO)NC(=O)[C@H](Cc1ccc(O)cc1)NC(=O)[C@H](CC(=O)O)NC(=O)[C@H](CO)NC(=O)[C@@H](NC(=O)[C@](C)(CC)NC(=O)[C@@H](NC(=O)CNC(=O)[C@H](CCC(=O)O)NC(=O)C(C)(C)NC(=O)[C@H](Cc1ccc(O)cc1)NC)[C@@H](C)O)[C@@H](C)CC)C(=O)NC(C)(C)C(=O)N[C@@H](CC(C)C)C(=O)N[C@@H](CC(=O)O)C(=O)N[C@@H](CCCNC(=N)N)C(=O)NC(C)(C)C(=O)N[C@@H](C)C(=O)N[C@@H](CCC(N)=O)C(=O)NC(C)(C)C(=O)N[C@@H](CC(N)=O)C(=O)N[C@@H](Cc1ccccc1)C(=O)N[C@H](C(=O)N[C@@H](CC(N)=O)C(=O)N[C@@H](Cc1c[nH]c2ccccc12)C(=O)N[C@@](C)(CC)C(=O)N[C@@H](CC(C)C)C(=O)N[C@@H](C)C(=O)N[C@@H](CCC(N)=O)C(=O)N[C@@H](CCCNC(=N)N)C(=O)N1CCC[C@H]1C(=O)N[C@@H](CO)C(=O)N[C@@H](CO)C(=O)NCC(=O)N[C@@H](C)C(=O)N1CCC[C@H]1C(=O)N1CCC[C@H]1C(=O)N1CCC[C@H]1C(=O)N[C@@H](CCCCNC(=O)CNC(=O)CNC(=O)CNC(=O)CNC(=O)CNC(=O)CNC(=O)CCCCCCCCCCCCCCCCCCC(=O)O)C(=O)N[C@@H](CCCNC(=N)N)C(N)=O)C(C)C [Compound 86]
EC50 (human GIPR): 0.044 nM | EC50 (human GLP-1R; [1]): > 1000 nM

CC[C@H](C)[C@H](NC(=O)[C@H](CO)NC(=O)[C@H](Cc1ccc(O)cc1)NC(=O)[C@H](CC(=O)O)NC(=O)[C@H](CO)NC(=O)[C@@H](NC(=O)[C@](C)(CC)NC(=O)[C@@H](NC(=O)CNC(=O)[C@H](CCC(=O)O)NC(=O)C(C)(C)NC(=O)[C@H](Cc1ccc(O)cc1)NC)[C@@H](C)O)[C@@H](C)CC)C(=O)NC(C)(C)C(=O)N[C@@H](CC(C)C)C(=O)N[C@@H](CC(=O)O)C(=O)N[C@@H](CCCNC(=N)N)C(=O)NC(C)(C)C(=O)N[C@@H](C)C(=O)N[C@@H](CCC(N)=O)C(=O)NC(C)(C)C(=O)N[C@@H](CC(N)=O)C(=O)N[C@@H](Cc1ccccc1)C(=O)N[C@H](C(=O)N[C@@H](CC(N)=O)C(=O)N[C@@H](Cc1c[nH]c2ccccc12)C(=O)N[C@@](C)(CC)C(=O)N[C@@H](CC(C)C)C(=O)N[C@@H](C)C(=O)N[C@@H](CCC(N)=O)C(=O)N[C@@H](CCCNC(=N)N)C(=O)N[C@@H](CCCCNC(=O)CNC(=O)CNC(=O)CNC(=O)CNC(=O)CNC(=O)CNC(=O)CCCCCCCCCCCCCCCCC(=O)O)C(=O)N[C@@H](CO)C(=O)N[C@@H](CO)C(=O)NCC(=O)N[C@@H](C)C(=O)N1CCC[C@H]1C(=O)N1CCC[C@H]1C(=O)N1CCC[C@H]1C(=O)N[C@@H](CO)C(=O)N[C@@H](CCCNC(=N)N)C(N)=O)C(C)C [Compound 87]
EC50 (human GIPR): 0.02 nM | EC50 (human GLP-1R; [1]): > 1000 nM

CC[C@H](C)[C@H](NC(=O)[C@H](CO)NC(=O)[C@H](Cc1ccc(O)cc1)NC(=O)[C@H](CC(=O)O)NC(=O)[C@H](CO)NC(=O)[C@@H](NC(=O)[C@](C)(CC)NC(=O)[C@@H](NC(=O)CNC(=O)[C@H](CCC(=O)O)NC(=O)C(C)(C)NC(=O)[C@H](Cc1ccc(O)cc1)NC)[C@@H](C)O)[C@@H](C)CC)C(=O)NC(C)(C)C(=O)N[C@@H](CC(C)C)C(=O)N[C@@H](CC(=O)O)C(=O)N[C@@H](CCCNC(=N)N)C(=O)NC(C)(C)C(=O)N[C@@H](C)C(=O)N[C@@H](CCC(N)=O)C(=O)NC(C)(C)C(=O)N[C@@H](CC(N)=O)C(=O)N[C@@H](Cc1ccccc1)C(=O)N[C@H](C(=O)N[C@@H](CC(N)=O)C(=O)N[C@@H](Cc1c[nH]c2ccccc12)C(=O)N[C@@](C)(CC)C(=O)N[C@@H](CC(C)C)C(=O)N[C@@H](C)C(=O)N[C@@H](CCC(N)=O)C(=O)N[C@@H](CCCNC(=N)N)C(=O)N1CCC[C@H]1C(=O)N[C@@H](CO)C(=O)N[C@@H](CO)C(=O)NCC(=O)N[C@@H](C)C(=O)N1CCC[C@H]1C(=O)N1CCC[C@H]1C(=O)N1CCC[C@H]1C(=O)N[C@@H](CO)C(=O)N[C@@H](CCCNC(=N)N)C(=O)N[C@@H](CCCCNC(=O)CNC(=O)CNC(=O)CNC(=O)CNC(=O)CNC(=O)CNC(=O)CNC(=O)CNC(=O)CNC(=O)CCCCCCCCCCCCCCCCCCC(=O)O)C(N)=O)C(C)C [Compound 76]
EC50 (human GIPR): 0.05 nM | EC50 (human GLP-1R; [1]): > 1000 nM

CCCCCCCCCCCCCCCC(=O)NCC(=O)NCC(=O)NCC(=O)NCC(=O)NCCCC[C@H](NC(=O)[C@H](CO)NC(=O)[C@@H]1CCCN1C(=O)[C@@H]1CCCN1C(=O)[C@@H]1CCCN1C(=O)[C@H](C)NC(=O)CNC(=O)[C@H](CO)NC(=O)[C@H](CO)NC(=O)[C@@H]1CCCN1C(=O)[C@H](CCCCN)NC(=O)[C@H](CCC(N)=O)NC(=O)[C@H](C)NC(=O)[C@H](CC(C)C)NC(=O)[C@H](CC(C)C)NC(=O)[C@H](Cc1c[nH]c2ccccc12)NC(=O)[C@H](CC(N)=O)NC(=O)[C@@H](NC(=O)[C@H](Cc1ccccc1)NC(=O)[C@H](CC(=O)O)NC(=O)[C@H](CCC(N)=O)NC(=O)[C@H](CCC(N)=O)NC(=O)[C@H](Cc1c[nH]cn1)NC(=O)[C@@H](NC(=O)[C@H](CCCCN)NC(=O)[C@H](CC(=O)O)NC(=O)[C@H](CCSC)NC(=O)[C@H](C)NC(=O)[C@@H](NC(=O)[C@H](CO)NC(=O)[C@H](Cc1ccc(O)cc1)NC(=O)[C@H](CC(=O)O)NC(=O)[C@H](CO)NC(=O)[C@@H](NC(=O)[C@H](Cc1ccccc1)NC(=O)[C@@H](NC(=O)CNC(=O)[C@H](CCC(=O)O)NC(=O)[C@H](C)NC(=O)[C@@H](N)Cc1ccc(O)cc1)[C@@H](C)O)[C@@H](C)CC)[C@@H](C)CC)[C@@H](C)CC)C(C)C)C(N)=O [Compound 15]
EC50 (human GLP-1R; read-out: hGLP-1R (Reporter gene assay) (EC50), 100% = 10 nM GLP-1): 40 nM
